The structures appear in SMILES notation.

This data set can be described thus: Reductive metabolism in liver S9 preparations. It is filed as in vitro ADME, NIH-III mice. On the procedure: In vitro hepatic metabolism of SN30000 and M14 was studied using 9,000 g post-mitochondrial supernatants (S9) prepared from livers of female NIH-III mice. Metabolism at 37°C was measured by dilution of S9 to appropriate protein concentrations (measured by BCA protein assay) in sodium/potassium phosphate buffer (67 mM phosphate, pH 7.4) containing 5 mM MgCl2, 1 mM EDTA, 1 mM NADPH, 1 mM NADH and 150 μM test drug. The reaction was terminated by adding an equal volume of ice-cold MeOH and samples were analyzed by LC-MS/MS. Two methods were used to modify the oxygen concentration. […]
To address whether this reflects an oxygen-sensitive (one-electron reduction) or oxygen-insensitive (two-electron reduction) process, metabolism was compared in NIH-III mouse liver S9 preparations under 20% O2 or anoxia. […] The liver S9 intrinsic clearance, CLint, was calculated as Vmax/Km for M14 formation under anoxia and scaled to the whole liver based on the (unrealistic) assumption that the liver is entirely anoxic. This upper estimate of in vivo hepatic clearance was then predicted as previously described ([Gu et al., 2011b]) using the free fraction of SN30000 in mouse plasma determined by equilibrium dialysis (Supplementary Table 11).

As to `[O-][n+]1nc(CCCN2CCOCC2)[n+]([O-])c2cc3c(cc21)CCC3` [SN30000, 3-(3-Morpholinopropyl)-7,8-dihydro-6H-indeno[5,6-e][1,2,4]triazine 1,4-dioxide], the “O2 in solution at equilibrium at ∼50% inhibition of M14 formation” value (0.2% O2 gas phase) is ~1.87 µM. Besides, the “Gas phase O2 concentration for 50% inhibition of reductive metabolism to M14” value (stirred S9, 4-parameter Hill model) was 0.19 ± 0.03%.
